# Test results from article PMC7819943, “Rice protein-binding microarrays: a tool to detect cis-acting elements near promoter regions in rice”.
# The chains behind the UniProt entries cited, without tags or fusion partners.
# UniProt Q0JBA9, entry or part of it: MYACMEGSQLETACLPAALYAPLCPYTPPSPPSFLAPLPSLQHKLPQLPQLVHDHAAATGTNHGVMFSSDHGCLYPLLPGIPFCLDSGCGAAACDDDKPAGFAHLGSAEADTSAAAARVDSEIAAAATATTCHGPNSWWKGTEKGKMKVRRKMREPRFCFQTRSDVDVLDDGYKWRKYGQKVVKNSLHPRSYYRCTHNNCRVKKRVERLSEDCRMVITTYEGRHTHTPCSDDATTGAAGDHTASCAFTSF
# The other results are listed elsewhere or left out.
# Target: OsWRKY34 (Oryza sativa, UniProt Q0JBA9 1-250)
# Assay: protein-binding microarray (RPBM); PBS, 2% BSA, 51.3 ng/ul salmon testes DNA, 50 uM zinc acetate, 200 nM TF, 25 C, 1 h; high values mean tight binding
# Details: protein: recombinant; tags: N-terminal polyhistidine and DsRed monomer fusion (pET32a); label: CyDye5-dUTP incorporated in the synthesized complementary strand; 3' TTTTT single-stranded linker to array surface; dsDNA, one strand shown
# Summary of the method: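 Polyhistidine-tagged DsRed fusions of transcription factors, joined at the N-terminus, were expressed in E. coli BL21-CodonPlus and isolated on Ni–NTA. They were incubated at 200 nM for 1 h at 25 °C on a custom Agilent array, double-stranded and BSA-blocked, in PBS with 2% BSA, salmon testes DNA and 50 µM zinc acetate. The binding signal is per-feature fluorescence intensity (arbitrary units) read on an Axon 4000B scanner after washing.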
row,Sequence,binding signal
1,ACACTTCTTTTTGGACAATACTAGCATTACTTTCTAAAGCCGGAGTCACCTAGTGCAG,8910 fluorescence intensity (a.u.)
2,TGGCCAGCTTCACCGCGAAGCGCCACGTGTCTTCCACTCACGGAGTCACCTAGTGCAG,10200 fluorescence intensity (a.u.)
3,GCCCGCGCGCCCGTCGCGCACCCTATCCTCGCCGCGCGCCCGGAGTCACCTAGTGCAG,9920 fluorescence intensity (a.u.)
4,CGTTCGCTTCGTTAACCTCCGTTTCGTACGACGGAGGAGCCGGAGTCACCTAGTGCAG,8040 fluorescence intensity (a.u.)
5,CGCCTATCTCTACCGCGCGCCCTCCGCCCCGCGGGCCCTTCGGAGTCACCTAGTGCAG,8800 fluorescence intensity (a.u.)
6,CAATCCAAGGTAATCTCATCAATAATCTCCTCGCTACACTCGGAGTCACCTAGTGCAG,8170 fluorescence intensity (a.u.)
7,GACCGACTACTCCTACAAACATTACTCAAGTCATTGCAAACGGAGTCACCTAGTGCAG,8200 fluorescence intensity (a.u.)
8,TATAAATACTGCCAGCCTCTTCGTTCGTTTCCATTTTTCCCGGAGTCACCTAGTGCAG,9610 fluorescence intensity (a.u.)
9,ACAGATTTGTCTCTGCAGCTGCTTCAATGCATAAACCGAACGGAGTCACCTAGTGCAG,8630 fluorescence intensity (a.u.)
10,TTGTCAAGTTGTTGCACTCGAACGTTTAATTCTCAAGTTCCGGAGTCACCTAGTGCAG,8560 fluorescence intensity (a.u.)
11,GAATGCATGTCCCAGTCATACTAATCGACTCACTTTCACACGGAGTCACCTAGTGCAG,8840 fluorescence intensity (a.u.)
12,TCCACTTATCATCTCTTAACTCTCCACTTTCATCCATCTCCGGAGTCACCTAGTGCAG,8200 fluorescence intensity (a.u.)
13,ATCTATAGTCGACCCAACACAGCGACACCACCAGCGCCCACGGAGTCACCTAGTGCAG,8250 fluorescence intensity (a.u.)
14,ACGTCTCCTCGTCACCACTCGCCACAAGTCCACCGCAGCACGGAGTCACCTAGTGCAG,8360 fluorescence intensity (a.u.)
15,GCAACGGGGAGGTGGGCGGAGGTGCGGCGCGGCGGCGGGCCGGAGTCACCTAGTGCAG,10300 fluorescence intensity (a.u.)
16,CTTTCCGGCCATCCGGCCCCGGTGCTTTGGTTGGGCCCATCGGAGTCACCTAGTGCAG,8020 fluorescence intensity (a.u.)
17,AGTAGTATTTTCTCTGGTCCCATAATTCTTAACGTTTTGACGGAGTCACCTAGTGCAG,12100 fluorescence intensity (a.u.)
18,TCACCTCCGTCGTCGTCCGCCCTCCACCCGCCGCCGCCGACGGAGTCACCTAGTGCAG,11000 fluorescence intensity (a.u.)
19,CACATGTGCCAACTACCCCTCCGTGGGTATTTCCGTCATTCGGAGTCACCTAGTGCAG,8850 fluorescence intensity (a.u.)
20,ACCTTGGACCACTTAATATAACCATTTGTTTCATCCTGGACGGAGTCACCTAGTGCAG,8420 fluorescence intensity (a.u.)
21,ATCTGTTCGGCCGGCCCAACCGTCTCGCCGCCCGTCTCCGCGGAGTCACCTAGTGCAG,8680 fluorescence intensity (a.u.)
22,CATCTGTTTCTGAATATTTGACGCCGTTGACTTTTTAAAACGGAGTCACCTAGTGCAG,19600 fluorescence intensity (a.u.)
23,CATCTTACTGGTCAGATCCTTGGTCATGCATATCTGTTCCCGGAGTCACCTAGTGCAG,9270 fluorescence intensity (a.u.)
24,GTTCATTTTCATGTTATTTTTCATGTAACTACATTATTATCGGAGTCACCTAGTGCAG,8990 fluorescence intensity (a.u.)
25,CTTCCGGATAGTTCTCGTTTGTTCGTTAATTTGGGCCGAACGGAGTCACCTAGTGCAG,8620 fluorescence intensity (a.u.)
26,GACTAATATGCTCCTGACGAACTGATCCTGTCCATATCCACGGAGTCACCTAGTGCAG,8430 fluorescence intensity (a.u.)
27,CATTGATTTTCACAGTCTTTCTTGTTTTTTTTTCCTCTTACGGAGTCACCTAGTGCAG,9480 fluorescence intensity (a.u.)

# Reprinted at random: two records from the list, in no set order.
row,Sequence,binding signal
18,TCACCTCCGTCGTCGTCCGCCCTCCACCCGCCGCCGCCGACGGAGTCACCTAGTGCAG,11000 fluorescence intensity (a.u.)
4,CGTTCGCTTCGTTAACCTCCGTTTCGTACGACGGAGGAGCCGGAGTCACCTAGTGCAG,8040 fluorescence intensity (a.u.)

# Next part.

row,Sequence,binding signal
1,GTTACCCTCTCCCTTTCTTGGCGAGCTTCTCTGGGTGAAACGGAGTCACCTAGTGCAG,8520 fluorescence intensity (a.u.)
2,TTCTGGCAAGCTTGTGATTCCTTGTCTTTTGCAGATACGTCGGAGTCACCTAGTGCAG,8670 fluorescence intensity (a.u.)
3,ACAGTTTTCTCCATCTTGGCCATTCGTGTGCTATATCCATCGGAGTCACCTAGTGCAG,16500 fluorescence intensity (a.u.)
4,CGCCCAACCGCCTCCCGCCACACACACACGACACAACCCGCGGAGTCACCTAGTGCAG,9300 fluorescence intensity (a.u.)
5,GAAACGGGTCTTTTTTATTTTGTCTCCAACACCAGTTTGCCGGAGTCACCTAGTGCAG,12100 fluorescence intensity (a.u.)
6,GGCTCCGAATTTCCTTTGTGATCATCCCTCTATTCATTTTCGGAGTCACCTAGTGCAG,8460 fluorescence intensity (a.u.)
7,ATGCCGCTCTATCTCTCTCTCTCTCTCTCTCTCTCTCTCTCGGAGTCACCTAGTGCAG,9760 fluorescence intensity (a.u.)
8,TGGCGCAATCAAACTAACACCGCTTTACGCTTTCGCCGCCCGGAGTCACCTAGTGCAG,9580 fluorescence intensity (a.u.)
9,TAAGTTTGCCAGTTCTGCAGTTCATGTATCTGTAATTTGACGGAGTCACCTAGTGCAG,8370 fluorescence intensity (a.u.)
10,TGGGTCCCTGGTTTTATTAGTCCACAGTTTGTCACTGCCTCGGAGTCACCTAGTGCAG,9090 fluorescence intensity (a.u.)
11,GTGTCGCCGTCTGTATACCAACTGCTCCTCGCTTTCGTTTCGGAGTCACCTAGTGCAG,13500 fluorescence intensity (a.u.)
12,GTTTCGAGTCCGAACCAAGTCACAGTCCGGTTTATTTTATCGGAGTCACCTAGTGCAG,9220 fluorescence intensity (a.u.)
13,GGTGGGTGGGGATCCACCTATACCTGGCCAAATGGGCCGTCGGAGTCACCTAGTGCAG,8490 fluorescence intensity (a.u.)
14,GGTCAGTTCAGTTGGTCTACCGGTTTTGCTTGCATTCCTGCGGAGTCACCTAGTGCAG,8140 fluorescence intensity (a.u.)
15,TTTTTTAACCTCACCTCACCTCCCCTTTTGATTGATATTTCGGAGTCACCTAGTGCAG,8080 fluorescence intensity (a.u.)
16,CCCCGACACGTTTTCAAGTTAAAGTGCGCATCCTGACCCACGGAGTCACCTAGTGCAG,9180 fluorescence intensity (a.u.)
17,GACCTCCTGTTTTCGTGCCAGTTTGAGTCCTAATCAAGCGCGGAGTCACCTAGTGCAG,9380 fluorescence intensity (a.u.)
18,ACAGGTTCATTCATTCTCCAAAGTCCAGCGTTCATCAATGCGGAGTCACCTAGTGCAG,8200 fluorescence intensity (a.u.)
19,CAGATTTTACTTTGGTTCTGTTAGCACGTTTTTCAAATAACGGAGTCACCTAGTGCAG,8450 fluorescence intensity (a.u.)
20,CTCATCGTCCTCCACGTGTCCACCCATACACGTGTCGCCACGGAGTCACCTAGTGCAG,9000 fluorescence intensity (a.u.)
21,CTTTTTATTTGCAAATATGCCGTTCACATGTTCTCTGCTTCGGAGTCACCTAGTGCAG,9420 fluorescence intensity (a.u.)
22,TTATTGCTGTCTTTTGTATTCTCAGCTTTTCAAAATCAGCCGGAGTCACCTAGTGCAG,9790 fluorescence intensity (a.u.)
23,TAGCTAGTGGTCGGTAGCAAGAGGTGGGGTGGCTTAGTGACGGAGTCACCTAGTGCAG,13700 fluorescence intensity (a.u.)
24,AAATATATCTTTCCATTTTTCAAAAGTTTTGATCTTCCTACGGAGTCACCTAGTGCAG,8480 fluorescence intensity (a.u.)
25,CTCTCACCCTTCTCTCCTCCACCTTTCCCCAACACGTACCCGGAGTCACCTAGTGCAG,9060 fluorescence intensity (a.u.)
26,ACACTACTTTATGAATGTCTGCACCGATATGTGCCACTTTCGGAGTCACCTAGTGCAG,9530 fluorescence intensity (a.u.)
27,ACCCTCCGTTTCTAAATATTTAACACCGTTGACTTTTTAGCGGAGTCACCTAGTGCAG,23700 fluorescence intensity (a.u.)
